Test results as given in PMC9859813.
These are yes or no findings as the source states them, for the method shown. Binding seen in cells or lysates may run through a third protein. Some binding calls cover weakened binding; strength is not graded here. For some assays here: Sequences can lack the tags named with a protein. Each block holds one binder with its values, some of them ahead of it.

What was measured:
[1] = target: T1, TRIM15 (tripartite motif family member TRIM15), endogenous (human (endogenous in Huh7 and Hep3B)) (UniProt Q9C019); assay: co-IP; endogenous proteins; whole cell lysate of Huh7 and Hep3B in RIPA buffer; IgG, anti-TRIM15 or anti-LASP1 antibody with protein A + G beads, overnight in the cold room; Western blot
T1 sequence: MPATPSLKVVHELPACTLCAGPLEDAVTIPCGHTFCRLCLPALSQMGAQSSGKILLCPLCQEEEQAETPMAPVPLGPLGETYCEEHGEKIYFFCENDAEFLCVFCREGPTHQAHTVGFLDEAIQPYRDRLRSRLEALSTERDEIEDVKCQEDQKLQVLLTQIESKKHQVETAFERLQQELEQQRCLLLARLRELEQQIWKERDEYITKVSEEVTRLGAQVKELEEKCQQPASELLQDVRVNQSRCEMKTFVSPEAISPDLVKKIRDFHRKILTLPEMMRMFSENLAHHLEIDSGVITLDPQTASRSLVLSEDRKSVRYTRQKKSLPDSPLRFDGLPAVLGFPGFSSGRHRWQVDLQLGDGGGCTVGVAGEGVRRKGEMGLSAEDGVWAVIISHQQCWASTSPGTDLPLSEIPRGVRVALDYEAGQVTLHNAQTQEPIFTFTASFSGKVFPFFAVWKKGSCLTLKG

[2] = target: T2, GST-TRIM15 fusion protein (UniProt Q9C019); assay: pull-down; GST fusion proteins immobilised on anti-GST magnetic beads, incubated with cell lysates (RIPA buffer) for 4 h; washed four times; Western blot; only the target purified
T2 sequence: T1 sequence

- binding [1]: binds
B1: LASP1, endogenous (protein, UniProt Q14847 1-261)
chain: MNPNCARCGKIVYPTEKVNCLDKFWHKACFHCETCKMTLNMKNYKGYEKKPYCNAHYPKQSFTMVADTPENLRLKQQSELQSQVRYKEEFEKNKGKGFSVVADTPELQRIKKTQDQISNIKYHEEFEKSRMGPSGGEGMEPERRDSQDGSSYRRPLEQQQPHHIPTSAPVYQQPQQQPVAQSYGGYKEPAAPVSIQRSAPGGGGKRYRAVYDYSAADEDEVSFQDGDTIVNVQQIDDGWMYGTVERTGDTGMLPANYVEAI

- binding [2]: binds
B2: HA-LASP1 (protein, UniProt Q14847 1-261)
chain: B1 chain
